From article PMC4749184
No constants are given. Whether binding was seen depends on the method and setting. Some entries that bind do so weakly or less than the wild type.

Protein sequences, listed by entry. Tags and fused reporters are not part of them.
UniProt Q03048: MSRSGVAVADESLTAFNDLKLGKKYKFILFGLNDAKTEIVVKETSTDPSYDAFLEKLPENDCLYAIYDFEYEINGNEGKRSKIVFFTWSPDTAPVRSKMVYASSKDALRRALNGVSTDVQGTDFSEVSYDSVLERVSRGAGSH

Target: T1, TBSV p33 replication protein (bait of the split-ubiquitin assay) (Tomato bushy stunt virus) (UniProt P15962)
T1 sequence: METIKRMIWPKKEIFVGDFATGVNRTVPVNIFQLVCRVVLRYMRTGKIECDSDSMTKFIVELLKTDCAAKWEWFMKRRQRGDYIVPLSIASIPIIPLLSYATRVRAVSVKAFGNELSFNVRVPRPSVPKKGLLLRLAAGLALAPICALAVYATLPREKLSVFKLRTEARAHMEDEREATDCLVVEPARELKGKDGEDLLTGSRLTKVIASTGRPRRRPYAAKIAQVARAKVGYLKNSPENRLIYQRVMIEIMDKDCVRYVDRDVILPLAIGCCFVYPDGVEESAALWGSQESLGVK
Test: two-hybrid; split-ubiquitin assay in yeast; p33 as bait co-expressed with NubG prey proteins; SSA1 and the empty prey vector (NubG-X) as positive and negative controls

In the case of “Cof1p (yeast cofilin), wild type, split-ubiquitin prey (from UniProt Q03048 1-143)”, the binding is reported as “binds”.
